These results are taken from patent US8334288B2, “4-phenoxymethylpiperidines as modulators of GPR119 activity” (IRM LLC, priority 2008, dated 2012).

By UniProt entry, the sequences of proteins in these tests, tags left out.
UniProt Q8TDV5, whole entry: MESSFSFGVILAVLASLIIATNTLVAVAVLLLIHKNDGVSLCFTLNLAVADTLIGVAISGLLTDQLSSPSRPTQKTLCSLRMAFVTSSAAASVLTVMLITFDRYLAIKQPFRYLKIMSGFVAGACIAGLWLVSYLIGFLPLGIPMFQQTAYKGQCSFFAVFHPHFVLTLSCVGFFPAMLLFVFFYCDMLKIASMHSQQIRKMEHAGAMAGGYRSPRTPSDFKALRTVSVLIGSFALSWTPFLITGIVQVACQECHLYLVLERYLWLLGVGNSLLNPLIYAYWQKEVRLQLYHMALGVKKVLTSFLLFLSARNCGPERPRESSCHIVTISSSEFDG

The target of this test is human GPR119 (Homo sapiens, UniProt Q8TDV5). Description: Cyclic AMP assay in stable cell line (HTRF, Flp-In-CHO-hGPR119 cells). To be noted: read-out: CHO-hGPR119 cells (EC50 − nM), increase in intracellular cAMP, 30 minutes at 37° C., 1 mM IBMX. As to the method: Flp-In-CHO cells (Invitrogen, Cat. #R758-07) are maintained in Ham's F12 medium supplemented with 10% fetal bovine serum, 1% antibiotic mixture and 2 mM L-glutamine. The cells are transfected with a DNA mixture containing human GPR119 in pcDNA5/FRT vector and the pOG44 vector (1:9) using Fugene6 (Roche), according to the manufacturer's instruction. After 48 h, the medium is changed to medium supplemented with 400 μg/ml hygromycin B to initiate the selection of stably transfected cells.
To test the activity of compounds of the invention, Flp-In-CHO-hGPR119 cells are harvested and resuspended in DMEM plus 3% lipid-depleted fetal bovine serum. Forth μl of cells are plated in 384 well plates at a density of 15,000 cells/well. IBMX (3-isobutyl-1-methyl-xanthine) is added to the cells to a final concentration of 1 mM, followed by the addition of 500 nl of the compound to be tested. The cells are incubated at 37° C. for 30 minutes. Equal volume (20 μl) of the HTRF reagents, anti-cAMP-Cryptate and cAMP-XL665, are added to the cells. The plates are incubated at rt for 1 h and read on a HTRF reader according to the manufacturer's instruction.

The EC50 is the concentration needed to bring the measured effect to its halfway point.

The structures given here were assigned with low confidence; some may be wrong.

Turning to `CCc1cnc(N2CCC(COc3c(F)cc(-c4ccc(C(=O)N(C)C)nc4)cc3F)CC2)nc1`, the EC50 came out at 4 nM.
